{
  "source": "patent US20240226111A1",
  "about": "“COMPOSITION FOR TREATING OSTEOARTHRITIS” (AJOU UNIVERSITY INDUSTRY-ACADEMIC COOPERATION FOUNDATION, priority 2021, published 2024)",
  "key": {"[1]": {"system": "mouse joints cultured ex vivo (Zmiz1 overexpression)", "test": "Mouse joints cultured ex vivo, Zmiz1 overexpressed by Ad-Zmiz1 infection, treated with K-7174", "format": "cell-based", "conditions": "FIG. 5D"}, "[2]": {"system": "DMM-induced osteoarthritis", "test": "DMM-induced osteoarthritis animal model, oral K-7174", "format": "in vivo, mouse", "conditions": "K-7174 10, 25 and 50 mg/kg orally for 6 weeks after DMM"}, "[3]": {"conditions": "increased by Zmiz1 overexpression, 5F"}},
  "note": "For at least one compound, name, drawing or mass did not settle the structure.",
  "data": [
    {"smiles": "COc1cc(/C=C/CCCN2CCCN(CCC/C=C/c3cc(OC)c(OC)c(OC)c3)CC2)cc(OC)c1OC", "note": "[K-7174, 1,4-bis((E)-5-(3,4,5-trimethoxyphenyl)pent-4-en-1-yl)-1,4-diazepane]", "values": [
      {"measurement": "expression of senescent cell promoting factor Glb1 (immunohistochemistry, densitometry)", "setting": "[1]; [3]", "result": "reduced"},
      {"measurement": "expression of senescent cell promoting factor p16 (immunohistochemistry, densitometry)", "setting": "[1]; [3]", "result": "reduced"},
      {"measurement": "sulfated proteoglycans (alcian blue staining and densitometry)", "setting": "[1]; reduced by Zmiz1 overexpression (Ad-Zmiz1), 5E", "result": "increased in a K-7174 dose-dependent manner"},
      {"measurement": "joint destruction induced by osteoarthritis (safranin-O, OARSI grade, SBP thickness)", "setting": "[2]; FIG. 6B, 6C", "result": "inhibited"},
      {"measurement": "expression of cartilage destructing factor Cox2 (immunohistochemistry)", "setting": "[2]; FIG. 6D, 6E", "result": "reduced"},
      {"measurement": "expression of cartilage destructing factor Mmp3 (immunohistochemistry)", "setting": "[2]; FIG. 6D, 6E", "result": "reduced"},
      {"measurement": "expression of senescent cell promoting factor Glb1 (immunohistochemistry)", "setting": "[2]; FIG. 6D, 6E", "result": "reduced"},
      {"measurement": "expression of senescent cell promoting factor p16 (immunohistochemistry)", "setting": "[2]; FIG. 6D, 6E", "result": "reduced"}
    ]}
  ]
}
